Structures can show the parent of a compound that is named as a salt. Where two headings read alike, the source gives them in different places.
What was measured:
[1] = test system: Hypertonie; settings: mean (SD)
[2] = test system: Hypertonie; settings: mean (SD); remark: listed apart in the source

COc1ccc([C@@H]2Sc3ccccc3N(CCN(C)C)C(=O)[C@@H]2OC(C)=O)cc1 [Diltiazem, Diltiazemhydrochlorid]
Körpergewicht (kg) ([1]; 1 × 180 mg (n = 40), Basislinie (end of placebo phase)): 82.5 (13.8) kg | Körpergewicht (kg) ([1]; 1 × 180 mg (n = 40), Endpunkt (3 weeks)): 79.7 (12.6) kg | Körpergewicht (kg) ([1]; 2 × 90 mg (n = 42), Basislinie (end of placebo phase)): 83.7 (15.7) kg | Körpergewicht (kg) ([1]; 2 × 90 mg (n = 42), Endpunkt (3 weeks)): 80.9 (14.2) kg | Körpergewicht (kg) ([2]; 1 × 180 mg (n = 30), Basislinie (end of placebo phase)): 80.3 (13.6) kg | Körpergewicht (kg) ([2]; 1 × 180 mg (n = 30), Endpunkt (8 weeks)): 79.9 (13.5) kg | Körpergewicht (kg) ([2]; 2 × 90 mg (n = 30), Basislinie (end of placebo phase)): 79.2 (12.9) kg | Körpergewicht (kg) ([2]; 2 × 90 mg (n = 30), Endpunkt (8 weeks)): 79.0 (12.9) kg
